From paper doi:10.1101/2024.12.06.627129 come the findings set out here.

By UniProt entry, the sequences of proteins in these tests, tags left out.
UniProt P53552: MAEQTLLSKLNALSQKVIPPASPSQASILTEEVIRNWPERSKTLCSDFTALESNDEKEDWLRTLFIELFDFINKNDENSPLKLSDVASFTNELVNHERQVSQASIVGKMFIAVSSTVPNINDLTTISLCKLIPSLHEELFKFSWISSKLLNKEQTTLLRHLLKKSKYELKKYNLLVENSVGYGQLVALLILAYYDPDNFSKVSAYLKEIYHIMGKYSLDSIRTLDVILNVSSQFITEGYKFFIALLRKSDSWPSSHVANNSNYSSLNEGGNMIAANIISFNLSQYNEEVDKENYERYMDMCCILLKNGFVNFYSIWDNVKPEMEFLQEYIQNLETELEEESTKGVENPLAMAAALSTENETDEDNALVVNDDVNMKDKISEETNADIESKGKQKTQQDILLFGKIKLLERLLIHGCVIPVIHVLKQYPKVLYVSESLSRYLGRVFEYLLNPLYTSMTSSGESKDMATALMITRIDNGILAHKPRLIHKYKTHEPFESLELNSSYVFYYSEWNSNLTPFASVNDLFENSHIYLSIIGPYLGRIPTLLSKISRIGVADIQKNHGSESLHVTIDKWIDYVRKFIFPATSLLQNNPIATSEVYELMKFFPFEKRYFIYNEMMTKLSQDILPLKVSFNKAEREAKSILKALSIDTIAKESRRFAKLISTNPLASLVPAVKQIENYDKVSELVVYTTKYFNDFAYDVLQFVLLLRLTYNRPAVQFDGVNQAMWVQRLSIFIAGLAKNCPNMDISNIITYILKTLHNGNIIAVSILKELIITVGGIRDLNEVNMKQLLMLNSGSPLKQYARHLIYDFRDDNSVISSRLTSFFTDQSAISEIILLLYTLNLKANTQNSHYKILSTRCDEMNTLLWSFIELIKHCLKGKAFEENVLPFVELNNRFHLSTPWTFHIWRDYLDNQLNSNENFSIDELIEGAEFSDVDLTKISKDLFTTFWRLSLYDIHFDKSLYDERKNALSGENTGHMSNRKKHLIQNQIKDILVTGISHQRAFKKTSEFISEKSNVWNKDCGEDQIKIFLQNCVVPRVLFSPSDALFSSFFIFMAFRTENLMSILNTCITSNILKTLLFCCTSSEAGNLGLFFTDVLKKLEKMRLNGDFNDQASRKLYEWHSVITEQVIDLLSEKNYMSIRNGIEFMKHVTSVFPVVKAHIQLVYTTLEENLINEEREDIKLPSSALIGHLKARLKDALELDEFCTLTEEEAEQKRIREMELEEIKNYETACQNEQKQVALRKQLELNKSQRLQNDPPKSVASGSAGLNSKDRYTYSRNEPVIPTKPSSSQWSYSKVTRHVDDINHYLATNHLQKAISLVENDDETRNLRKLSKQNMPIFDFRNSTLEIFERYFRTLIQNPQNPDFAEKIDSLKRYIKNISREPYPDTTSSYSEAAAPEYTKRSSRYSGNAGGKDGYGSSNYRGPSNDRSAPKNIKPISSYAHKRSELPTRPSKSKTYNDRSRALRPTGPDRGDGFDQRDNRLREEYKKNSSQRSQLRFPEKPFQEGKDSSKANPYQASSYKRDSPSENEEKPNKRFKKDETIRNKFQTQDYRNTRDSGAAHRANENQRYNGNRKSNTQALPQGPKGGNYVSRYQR

For this assay, the target named is T1, Thp2-TAP (S. cerevisiae) (UniProt O13539).
T1 sequence: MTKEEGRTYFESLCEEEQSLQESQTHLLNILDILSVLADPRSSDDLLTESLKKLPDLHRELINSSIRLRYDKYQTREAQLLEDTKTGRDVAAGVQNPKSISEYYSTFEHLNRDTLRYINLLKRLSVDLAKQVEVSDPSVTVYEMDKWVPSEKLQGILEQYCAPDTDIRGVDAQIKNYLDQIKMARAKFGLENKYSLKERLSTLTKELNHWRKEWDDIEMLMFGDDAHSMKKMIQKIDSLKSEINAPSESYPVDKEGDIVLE
Briefly: co-IP.

Results are given in words; binding and its absence hold for the method and conditions named. Binding seen in cells or lysates may run through a third protein. Some entries that bind do so weakly or less than the wild type.

With Tho2 (from UniProt P53552 1-1597), the binding entry is given as “binds”.

B1: Mft1 (protein, UniProt P33441 1-392)
chain: MPLSQKQIDQVRTKVHYSEVDTPFNKYLDILGKVTKLTGSIINGTLSNDDSKIEKLTEQNISQLKESAHLRFLDLQSSIDTKKVADENWETCQQETLAKLENLKDKLPDIKSIHSKLLLRIGKLQGLYDSVQVINREVEGLSEGRTSLVVTRAEWEKELGTDLVKFLIEKNYLKLVDPGLKKDSSEERYRIYDDFSKGPKELESINASMKSDIENVRQEVSSYKEKWLRDAEIFGKITSIFKEELLKRDGLLNEAEGDNIDEDYESDEDEERKERFKRQRSMVEVNTIENVDEKEESDHEYDDQEDEENEEEDDMEVDVEDIKEDNEVDGESSQQEDNSRQGNNEETDKETGVIEEPDAVNDAEEADSDHSSRKLGGTTSDFSASSSVEEVK
In the case of B1, the binding result is recorded as “binds”.
